From patent publication US10583115B2, “Modulators of 14-3-3 functionality and uses thereof” (University of South Australia, priority 2014, dated 2020)
Some results were stated once for a whole list of compounds, not compound by compound.

System: Jurkat cells
Assay: Jurkat apoptosis assays (TMRE, caspase 3, Annexin V, viability by flow cytometry)
Type: cell-based
Experimental: Jurkat cells were routinely set up in apoptosis assays at 2×10^5/ml in RPMI with 0.5% FBS. After treatment, cells were stained either with 200 nM TMRE, 5 μl/ml NucView™ (Biotium), or Annexin V-FITC (Roche) for 15 mins prior to analysis by flow cytometry. Forward- and side-scatter properties were used to exclude debris and a ‘viable’ gate corresponding to the intact, PI negative cell population was used for fluorescence analysis. For A549, cells at 90% confluency were treated with RB compounds for 48 hrs in DMEM with 0.5% FBS. After treatment, cells were released with trypsin and then stained with NucView™ prior to analysis by flow cytometry.

Compound	time of treatment by which apoptosis is activated [h]
CCCCCCCCc1ccc(CC[N+]2(C)CCCCC2)cc1 [RB-012]	≤ 4
CCCCCCCCc1ccc(CC[N+]2(C)CCCC2)cc1 [RB-011]	≤ 4
